Data taken from US20040241845A1.
No constants are given. Whether binding was seen depends on the method and setting. In cells and extracts the contact can be indirect. Some results given as binding are weak or reduced against the parent protein; the word gives no strength.

The chains behind the UniProt entries cited, without tags or fusion partners. Where a name states a change or a piece, a line headed by the entry shows the natural chain unless it says otherwise.
UniProt O95793: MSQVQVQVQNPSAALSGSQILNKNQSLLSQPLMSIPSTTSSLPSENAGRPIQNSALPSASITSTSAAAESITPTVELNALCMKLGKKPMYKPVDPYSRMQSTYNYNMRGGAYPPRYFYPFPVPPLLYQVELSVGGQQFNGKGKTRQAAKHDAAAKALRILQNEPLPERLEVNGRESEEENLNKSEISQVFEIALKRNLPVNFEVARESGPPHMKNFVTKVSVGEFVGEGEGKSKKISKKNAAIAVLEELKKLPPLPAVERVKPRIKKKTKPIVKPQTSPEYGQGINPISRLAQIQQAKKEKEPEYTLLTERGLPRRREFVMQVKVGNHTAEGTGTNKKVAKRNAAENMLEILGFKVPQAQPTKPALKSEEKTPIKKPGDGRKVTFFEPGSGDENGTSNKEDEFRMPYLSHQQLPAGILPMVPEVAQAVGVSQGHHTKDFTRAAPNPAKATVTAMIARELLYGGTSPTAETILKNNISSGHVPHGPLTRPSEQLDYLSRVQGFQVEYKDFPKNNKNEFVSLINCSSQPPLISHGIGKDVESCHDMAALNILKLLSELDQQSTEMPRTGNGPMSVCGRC

Assays:
[1] = molecular target: pr55Gag/Rluc (full-length HxB2 Gag fused to Renilla luciferase) (HIV-1 HxB2; Renilla reniformis) (UniProt P04591); assay: co-immunoprecipitation with anti-CA (legend of FIG. 16)
[2] = molecular target: pr55Gag/Rluc (full-length HxB2 Gag fused to Renilla luciferase) (HIV-1 HxB2; Renilla reniformis) (UniProt P04591); assay: co-immunoprecipitation with anti-CA, Western with anti-HA

Substance: Staufen-HA (wild-type human Staufen, short isoform, HA-tagged) (from UniProt O95793 82-577)
- binding [1]: binds
- binding [2]: binds
